According to publication PMC7515897:
These are yes or no findings as the source states them, for the method shown. In cells and extracts the contact can be indirect. Some results given as binding are weak or reduced against the parent protein; the word gives no strength. One block for each substance: values may come before it.

Sequences of proteins named here, by UniProt entry; tags and fusion partners are left off.
UniProt P67809: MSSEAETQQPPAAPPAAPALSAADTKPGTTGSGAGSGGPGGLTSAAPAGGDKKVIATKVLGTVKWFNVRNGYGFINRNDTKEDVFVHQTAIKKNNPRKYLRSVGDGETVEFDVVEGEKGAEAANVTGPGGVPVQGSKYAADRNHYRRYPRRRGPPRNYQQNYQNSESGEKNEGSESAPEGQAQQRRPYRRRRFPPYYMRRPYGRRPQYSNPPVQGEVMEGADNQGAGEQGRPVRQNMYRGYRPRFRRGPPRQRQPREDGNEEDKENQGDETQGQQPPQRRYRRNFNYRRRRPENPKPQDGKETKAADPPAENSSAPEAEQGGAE

Columns and labels:
[1] = target: cytoplasmic C-terminus of β2-AR (314–413 aa) (UniProt P07550); assay: co-IP; HEK293T cells transfected with full-length or truncated HA-tagged β2-AR and Myc-tagged YB-1
[2] = target: haemagglutinin (HA)-tagged β2-AR, full-length (UniProt P07550); assay: as above
[3] = target: β2-adrenergic receptor (human (endogenous in HCC tissue and SMMC-7721)) (UniProt P07550); assay: co-IP; endogenous proteins in metastatic HCC tissue specimens; IP with anti-β2-AR or anti-YB-1 antibody, blot of the other
[4] = target: β2-adrenergic receptor (human (endogenous in HCC tissue and SMMC-7721)) (UniProt P07550); assay: co-IP; endogenous proteins in SMMC-7721 cell lysates, cells pre-treated with 10 μM ISO; IP with an antibody to one partner, blot of the other
[5] = target: GST-YB-1 (UniProt P67809); assay: pull-down; GST pull-down of HA-β2-AR from whole-cell extracts of HEK293T cells, with GST or GST-YB-1
[6] = target: phosphorylated β2-AR (human (endogenous in SMMC-7721)) (UniProt P07550); assay: co-IP; endogenous proteins in SMMC-7721 cell lysates, cells pre-treated with 10 μM ISO; IP with an antibody to one partner, blot of the other
[7] = target: phosphorylated YB-1 (S102) (human (endogenous in SMMC-7721)) (UniProt P67809); assay: as above
[8] = target: Y-box binding protein 1 (human (endogenous in HCC tissue and SMMC-7721)) (UniProt P67809); assay: co-IP; endogenous proteins in metastatic HCC tissue specimens; IP with anti-β2-AR or anti-YB-1 antibody, blot of the other
[9] = target: Y-box binding protein 1 (human (endogenous in HCC tissue and SMMC-7721)) (UniProt P67809); assay: co-IP; endogenous proteins in SMMC-7721 cell lysates, cells pre-treated with 10 μM ISO; IP with an antibody to one partner, blot of the other

Substance: Myc-tagged YB-1, full-length (from UniProt P67809 1-324)
binding [1]: binds
binding [2]: binds

Substance: Y-box binding protein 1 (from UniProt P67809 1-324)
binding [3]: binds
binding [4]: binds

Substance: haemagglutinin (HA)-tagged β2-AR, full-length (from UniProt P07550 1-413) (receptor)
binding [5]: binds

Substance: phosphorylated YB-1 (S102) (from UniProt P67809 1-324)
binding [6]: binds

The next lines start with the values.

binding [7]: binds
Substance: phosphorylated β2-AR (from UniProt P07550 1-413) (receptor)

binding [8]: binds
binding [9]: binds
Substance: β2-adrenergic receptor (from UniProt P07550 1-413)
